Data as given in publication PMC5261007.
Results are given in words; binding and its absence hold for the method and conditions named. Binding seen in cells or lysates may run through a third protein. Some binding calls cover weakened binding; strength is not graded here.

Protein sequences, listed by entry. Tags and fused reporters are not part of them.
UniProt P10070: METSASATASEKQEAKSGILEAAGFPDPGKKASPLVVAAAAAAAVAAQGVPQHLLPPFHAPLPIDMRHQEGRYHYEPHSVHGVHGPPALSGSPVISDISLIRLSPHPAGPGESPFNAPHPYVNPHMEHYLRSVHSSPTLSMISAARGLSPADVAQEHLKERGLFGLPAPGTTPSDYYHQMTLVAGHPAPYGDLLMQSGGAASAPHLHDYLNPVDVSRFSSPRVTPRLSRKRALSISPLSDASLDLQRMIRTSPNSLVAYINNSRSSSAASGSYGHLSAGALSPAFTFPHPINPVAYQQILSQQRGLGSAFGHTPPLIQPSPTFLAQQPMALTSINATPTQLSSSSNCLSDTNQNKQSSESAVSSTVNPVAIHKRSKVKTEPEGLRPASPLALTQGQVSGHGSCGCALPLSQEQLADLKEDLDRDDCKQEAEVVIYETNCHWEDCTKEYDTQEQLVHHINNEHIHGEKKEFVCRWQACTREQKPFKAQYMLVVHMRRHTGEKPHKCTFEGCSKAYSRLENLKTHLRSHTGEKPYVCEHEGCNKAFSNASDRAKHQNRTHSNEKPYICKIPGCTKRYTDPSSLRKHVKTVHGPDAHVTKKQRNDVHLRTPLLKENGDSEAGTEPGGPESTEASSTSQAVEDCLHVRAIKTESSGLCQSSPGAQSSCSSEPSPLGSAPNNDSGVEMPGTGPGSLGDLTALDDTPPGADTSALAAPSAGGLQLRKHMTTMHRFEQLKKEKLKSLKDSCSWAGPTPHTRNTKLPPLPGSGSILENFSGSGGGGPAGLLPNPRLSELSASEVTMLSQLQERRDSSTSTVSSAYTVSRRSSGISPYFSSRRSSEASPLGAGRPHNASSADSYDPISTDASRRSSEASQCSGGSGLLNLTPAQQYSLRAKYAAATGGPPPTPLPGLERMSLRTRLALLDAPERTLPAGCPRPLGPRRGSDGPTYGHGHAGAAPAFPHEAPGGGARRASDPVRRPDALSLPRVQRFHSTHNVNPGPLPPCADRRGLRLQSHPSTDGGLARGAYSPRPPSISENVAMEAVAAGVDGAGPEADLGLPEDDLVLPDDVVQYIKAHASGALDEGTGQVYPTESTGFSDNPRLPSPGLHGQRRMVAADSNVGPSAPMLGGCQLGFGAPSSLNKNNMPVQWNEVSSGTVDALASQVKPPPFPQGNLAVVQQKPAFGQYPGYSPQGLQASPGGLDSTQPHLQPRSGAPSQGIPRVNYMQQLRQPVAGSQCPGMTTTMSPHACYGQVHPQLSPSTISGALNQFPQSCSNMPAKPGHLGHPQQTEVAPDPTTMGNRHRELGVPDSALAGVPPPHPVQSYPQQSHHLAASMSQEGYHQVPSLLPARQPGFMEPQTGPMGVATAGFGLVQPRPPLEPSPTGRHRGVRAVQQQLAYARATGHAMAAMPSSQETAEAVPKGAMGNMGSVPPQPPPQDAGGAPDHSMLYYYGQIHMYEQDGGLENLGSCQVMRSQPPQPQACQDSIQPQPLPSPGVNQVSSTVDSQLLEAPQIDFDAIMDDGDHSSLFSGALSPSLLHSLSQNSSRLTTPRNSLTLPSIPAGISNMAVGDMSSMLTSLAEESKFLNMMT
UniProt O43791: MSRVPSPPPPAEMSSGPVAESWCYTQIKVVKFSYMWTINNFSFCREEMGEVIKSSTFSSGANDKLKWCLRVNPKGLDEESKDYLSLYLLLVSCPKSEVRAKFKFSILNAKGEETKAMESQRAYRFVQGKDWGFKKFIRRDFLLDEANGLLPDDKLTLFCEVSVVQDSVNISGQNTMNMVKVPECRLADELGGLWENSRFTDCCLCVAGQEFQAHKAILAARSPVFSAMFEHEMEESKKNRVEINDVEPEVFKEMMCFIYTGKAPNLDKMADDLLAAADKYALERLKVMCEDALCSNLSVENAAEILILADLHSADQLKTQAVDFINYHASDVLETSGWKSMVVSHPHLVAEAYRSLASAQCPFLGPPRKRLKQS

Biological target: Gli2 (human (endogenous in Lovo)) (UniProt P10070)
Assay: co-IP; supernatant of Lovo cell lysates incubated with indicated antibodies and protein-G agarose beads at 4 °C overnight; washed with 0.1% Lubrol-PX, 50 mM KCl, 2 mM CaCl2, 20% glycerol, 50 mM Tris-HCl, pH 7.4; immunoblot; goat anti-rabbit IgG as negative control

- binding: binds
Substance: speckle-type POZ protein (SPOP) (from UniProt O43791 1-374)
